No constants are given. Whether binding was seen depends on the method and setting. Binding seen in cells or lysates may run through a third protein. Here binding means that the protein was enriched with, or labelled near, the bait; the list need not be complete.
Target: T1, Ubiquitin carboxyl-terminal hydrolase L3 (UCHL3) (human (endogenous in Hep3B and Huh7)) (UniProt P15374)
T1 sequence: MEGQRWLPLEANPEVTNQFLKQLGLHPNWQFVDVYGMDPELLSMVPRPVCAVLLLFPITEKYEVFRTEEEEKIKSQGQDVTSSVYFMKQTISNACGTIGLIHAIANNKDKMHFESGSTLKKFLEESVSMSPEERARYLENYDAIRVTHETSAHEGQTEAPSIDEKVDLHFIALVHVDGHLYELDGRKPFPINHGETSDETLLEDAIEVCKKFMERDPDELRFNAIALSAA
Test: affinity purification with mass spectrometry; co-immunoprecipitation with UCHL3 antibody followed by mass spectrometry (IP-MS); cell line not named

Chains of the proteins cited; added tags and fusions are not shown.
UniProt P08670: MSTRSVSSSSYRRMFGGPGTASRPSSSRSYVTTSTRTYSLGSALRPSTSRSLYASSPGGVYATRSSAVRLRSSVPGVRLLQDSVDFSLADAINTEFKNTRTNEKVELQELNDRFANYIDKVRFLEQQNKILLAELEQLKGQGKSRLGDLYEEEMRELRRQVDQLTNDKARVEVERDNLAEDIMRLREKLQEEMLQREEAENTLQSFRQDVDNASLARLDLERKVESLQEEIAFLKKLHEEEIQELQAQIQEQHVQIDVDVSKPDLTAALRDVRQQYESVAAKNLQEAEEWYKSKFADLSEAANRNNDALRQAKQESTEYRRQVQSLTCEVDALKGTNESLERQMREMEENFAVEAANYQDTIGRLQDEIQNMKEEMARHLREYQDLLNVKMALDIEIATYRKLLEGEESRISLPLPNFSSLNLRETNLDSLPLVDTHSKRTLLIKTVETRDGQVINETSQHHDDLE

- binding: binds
Substance: Vimentin (from UniProt P08670 1-466)
